Data taken from PMC11489581.
These are yes or no findings as the source states them, for the method shown. Binding seen in cells or lysates may run through a third protein. Binding calls can cover weak binding; strength is not graded here.

What was measured:
[1] = target: JNK (human (endogenous in AGS and HGC-27)); assay: co-IP; membrane fractions of negative control and LCN2-overexpressing GC cells, co-immunoprecipitation and western blot
[2] = target: JNK (human (endogenous in AGS and HGC-27)); assay: co-IP; whole cell lysate of AGS and HGC-27 cells (5 mg protein), primary antibody overnight at 4 C, protein A/G agarose 2 h at 4 °C, western blot

B1: 24p3R (receptor, UniProt Q8WUG5 1-649)
chain: MAPRVATGTPEPNGGGGGKIDNTVEITPTSNGQVGTLGDAVPTEQLQGEREREREGEGDAGGDGLGSSLSLAVPPGPLSFEALLAQVGALGGGQQLQLGLCCLPVLFVALGMASDPIFTLAPPLHCHYGAFPPNASGWEQPPNASGVSVASAALAASAASRVATSTDPSCSGFAPPDFNHCLKDWDYNGLPVLTTNAIGQWDLVCDLGWQVILEQILFILGFASGYLFLGYPADRFGRRGIVLLTLGLVGPCGVGGAAAGSSTGVMALRFLLGFLLAGVDLGVYLMRLELCDPTQRLRVALAGELVGVGGHFLFLGLALVSKDWRFLQRMITAPCILFLFYGWPGLFLESARWLIVKRQIEEAQSVLRILAERNRPHGQMLGEEAQEALQDLENTCPLPATSSFSFASLLNYRNIWKNLLILGFTNFIAHAIRHCYQPVGGGGSPSDFYLCSLLASGTAALACVFLGVTVDRFGRRGILLLSMTLTGIASLVLLGLWDCEHPIFPTVWAQQGNPNRDLNEAAITTFSVLGLFSSQAAAILSTLLAAEVIPTTVRGRGLGLIMALGALGGLSGPAQRLHMGHGAFLQHVVLAACALLCILSIMLLPETKRKLLPEVLRDGELCRRPSLLRQPPPTRCDHVPLLATPNPAL
**Q.** For B1, which binding [1] is on record?
**A.** Its binding is “binds”.

**Q.** And the binding [2]?
**A.** Its binding is “binds”.
